Data taken from PubChem BioAssay AID1347426 (Functional Genomics Laboratory (NCATS/FGL), 2020).
Screen size: about 31,000 sequences; about 1,400 (4.5%) were called active.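 The calls were made as follows: active = median seed-adjusted z-score above 1 or below -1; inactive = the rest.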 The list shows a part of the results.

Test: Novel Modifiers of Survival Motor Neuron (SMN) Protein: Gene Identification via Genome-wide siRNA Screen;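 also: luminescence tracks full-length SMN protein made from the SMN2 reporter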
Conditions: HEK293T SMN2-luciferase reporter, siRNA knockdown, 72 h; actives lie on both sides
Method in brief: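 Genome-wide siRNA screen (10418 genes, 3 siRNAs each, 1 pmol per well) by reverse transfection in HEK293T cells stably carrying an SMN2-luciferase reporter; luminescence after 72 hours, normalized to negative-control siRNA, log10-transformed, MAD-scored.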

Sequence	median seed-adjusted z-score
AAAUGGUAGCGGAAUGUAATT against PMP2	inactive: 0.00618
UGAUCUUGGUUGAACUGUATT against USP43	inactive: 0
GAAAGAACGAGGAGACUUUTT against ATP1B1	inactive: 0.971
GGACAACAUUAACAUCCGATT against ATAD2B	inactive: 0.0192
AGGGCUUGUUUGACAACUUTT against CHTF18	inactive: 0.371
CCUAGAUCACAUAACCAUUTT against SLCO1C1	inactive: 0.071
UCCUCUACCUGGAUCAUAATT against INHBE	inactive: 0.172
CGGCUUCAAAGUCUACGUATT against EXT1	inactive: 0.489
CGAACUUAAUGGUAAAGAATT against CD2AP	inactive: 0.113
GGCUGGAUGUCAUUGAGAATT against SRGAP3	inactive: -0.0961
GGAUGUCUUUUGUCCCUGUTT against VN2R1P	inactive: -0.25
GCCUGGAACUAGAGCGCAATT against PRPH	inactive: 0
CUACCAAACCAACUACCUUTT against PRAF2	inactive: -0.326
GGAAGAAACUUGUGCAGAUTT against PTPN23	inactive: -0.0473
GCCUCGCAAAUGUAUCUGATT against CD163L1	inactive: 0.353
GCUGAGCCGUUUGACAACATT against NDUFV3	inactive: -0.086
GCAGAACGAAUAUAAGUUATT against MLH3	inactive: 0.228
GGAAGGAACUGACCGACUUTT against FOSL1	inactive: -0.431
CCCUAUCAUUGGAGAUGUUTT against NR0B2	inactive: -0.374
GGUUGUUGCUGAUAGAGAATT against DPH5	inactive: 0
GGUUAUCAAGUAUUACCCATT against TTC15	inactive: -0.235
GAUUGGUGGUUGGAACAUUTT against ECE2	inactive: 0.794
GGCCUAGUCUACUUCCUCUTT against MFSD10	inactive: 0.0116

Sequence	median seed-adjusted z-score
AGCAAGUUCUUGAAAUUCATT against MRGPRD	inactive: -0.484
GAAAGGAUCAGUGUCGAUATT against OCRL	inactive: -0.545
CACCUACUUUGAUAGAGAUTT against HMGCS1	inactive: 0.0596
GGAUGGGCUCAGAAUGUAATT against HTR7	inactive: -0.0111
GGCUUUAAGAUCACGCAGATT against SNRPA	active: -2.09
AGAUGCACAUAGUACAUGATT against CA4	inactive: 0.0549
CCGUUAUCCUGGAAACUGATT against SLC25A29	inactive: 0.642
GGUGGACACGUCAUUCUGATT against GTPBP5	inactive: 0.0354
CAAUAAACAUGGAAUACCATT against GABRG3	inactive: 0
GCUGUAGUGCAGUUCCAGATT against NDOR1	inactive: 0.328
GAAGAAGGCUGGAAACAGATT against HDAC7	inactive: -0.41
GCCUCCUACUACUUCCGUUTT against SLC6A8	inactive: -0.0673
GUACUGUACCUCAUGCAUATT against PDHX	inactive: 0.21
CCGUCUCCAUGAAUGAGAATT against SULT4A1	inactive: -0.0628
CCAUUGGAUUUAAUGUAGATT against ARL1	inactive: 0.347
GGGAUAAGCAGAUAGAAGATT against MYST2	active: -1.46
GGGAGAUUGGCUCUGUGAATT against RAC3	inactive: 0.477
CGGCGAUGUGGAGUACGUATT against DBP	inactive: -0.115
GCUUUACCACCGUACGAAATT against MST4	inactive: 0.343
GGAUAUUGGAGUAAUUGGATT against LEPR	inactive: -0.184
CAAUGGAAGCUGUUAAACATT against PSMA1	inactive: -0.145
CAUCAUCAGUUUUUCGAUUTT against AHCTF1	inactive: -0.501
GUAUUUGUGACAGGGCAAATT against PTPRC	inactive: 0.197

Sequence	median seed-adjusted z-score
GGGAUGGAUUGGAUACUGATT against ATAD1	inactive: -0.544
CAAUGGACAGAAUACACUUTT against ZNF614	inactive: 0.0971
GUCUGUAACUGAGCAAGGATT against YWHAZ	inactive: 0.721
CAUCAACAAUGAGACCAUUTT against AOC3	inactive: -0.474
GCUGUCUCUUAGUAAAUAATT against INSL3	inactive: -0.037
CACCUUCCAUGAUACCUAUTT against KCNJ5	inactive: 0.0644
CCCUGAACCUGGUACUGCATT against DOK1	inactive: 0.0532
CAAGAAGCAUUAUUACGAUTT against PPIL2	inactive: -0.467
ACAUCACCACGGGUCUGUATT against STK11	inactive: 0.348
GCAGCUCGUUGGCUCCAAATT against CLDN9	inactive: 0.398
CAUUCUUUCUAACCAUGGATT against CAPN11	inactive: -0.273
AGCUUGGGCUCACAAGAAATT against ZNF707	inactive: -0.119
GGAGUAGAAUGGAUUGCAATT against CD48	inactive: -0.0981
CCAACCACAUAACUCGAGATT against RAD51L3	inactive: 0.155
CCAGUGACUCCUAAGUUUATT against ZYX	inactive: 0.273
GGAACUUGCACAACUAGAATT against CDC2L5	inactive: 0.314
CCAAGAUUCAGGUCAUUGATT against PRPS2	inactive: 0.389
UGGUGAUCAUCAACGAGUATT against LRRTM1	inactive: -0.528
GUGUUCGUUUGGGUGCAAATT against SLC10A3	inactive: -0.25
GGAAAGAAUUCUGAAUAUATT against MEGF10	inactive: 0.622
AGGCCUGCUUAUUCACCAUTT against POLR2J2	inactive: 0.375
CGUGGUCCUUAACAUCAAATT against PCDH7	inactive: 0.192

Some of the entries so far, as a markdown table.

| Sequence | median seed-adjusted z-score |
| --- | --- |
| CCCUGAACCUGGUACUGCATT against DOK1 | inactive: 0.0532 |
| CAAGAAGCAUUAUUACGAUTT against PPIL2 | inactive: -0.467 |
| ACAUCACCACGGGUCUGUATT against STK11 | inactive: 0.348 |
| CCAACCACAUAACUCGAGATT against RAD51L3 | inactive: 0.155 |
| GGAACUUGCACAACUAGAATT against CDC2L5 | inactive: 0.314 |
